Results are given in words; binding and its absence hold for the method and conditions named. Binding seen in cells or lysates may run through a third protein. Some results given as binding are weak or reduced against the parent protein; the word gives no strength.
Key:
[1] = target: Mec1(a) (Mec1 with C-terminal PreScission protease site and 3xFLAG tag) (S. cerevisiae) (UniProt P38111); experiment: co-IP; FLAG-Ab beads in lysate of yeast co-overexpressing Mec1-3xFLAG and Ddc2; washes in Buffer A + 1 M NaCl + 1 mM ATP + 4 mM MgCl2; elution with 0.2 mg/mL FLAG peptide; fractions on SDS-PAGE
[2] = target: Mec1(b) (Mec1 with C-terminal S6 sequence and 3xFLAG tag) (S. cerevisiae) (UniProt P38111); experiment: as above

By UniProt entry, the sequences of proteins in these tests, tags left out.
UniProt P38111: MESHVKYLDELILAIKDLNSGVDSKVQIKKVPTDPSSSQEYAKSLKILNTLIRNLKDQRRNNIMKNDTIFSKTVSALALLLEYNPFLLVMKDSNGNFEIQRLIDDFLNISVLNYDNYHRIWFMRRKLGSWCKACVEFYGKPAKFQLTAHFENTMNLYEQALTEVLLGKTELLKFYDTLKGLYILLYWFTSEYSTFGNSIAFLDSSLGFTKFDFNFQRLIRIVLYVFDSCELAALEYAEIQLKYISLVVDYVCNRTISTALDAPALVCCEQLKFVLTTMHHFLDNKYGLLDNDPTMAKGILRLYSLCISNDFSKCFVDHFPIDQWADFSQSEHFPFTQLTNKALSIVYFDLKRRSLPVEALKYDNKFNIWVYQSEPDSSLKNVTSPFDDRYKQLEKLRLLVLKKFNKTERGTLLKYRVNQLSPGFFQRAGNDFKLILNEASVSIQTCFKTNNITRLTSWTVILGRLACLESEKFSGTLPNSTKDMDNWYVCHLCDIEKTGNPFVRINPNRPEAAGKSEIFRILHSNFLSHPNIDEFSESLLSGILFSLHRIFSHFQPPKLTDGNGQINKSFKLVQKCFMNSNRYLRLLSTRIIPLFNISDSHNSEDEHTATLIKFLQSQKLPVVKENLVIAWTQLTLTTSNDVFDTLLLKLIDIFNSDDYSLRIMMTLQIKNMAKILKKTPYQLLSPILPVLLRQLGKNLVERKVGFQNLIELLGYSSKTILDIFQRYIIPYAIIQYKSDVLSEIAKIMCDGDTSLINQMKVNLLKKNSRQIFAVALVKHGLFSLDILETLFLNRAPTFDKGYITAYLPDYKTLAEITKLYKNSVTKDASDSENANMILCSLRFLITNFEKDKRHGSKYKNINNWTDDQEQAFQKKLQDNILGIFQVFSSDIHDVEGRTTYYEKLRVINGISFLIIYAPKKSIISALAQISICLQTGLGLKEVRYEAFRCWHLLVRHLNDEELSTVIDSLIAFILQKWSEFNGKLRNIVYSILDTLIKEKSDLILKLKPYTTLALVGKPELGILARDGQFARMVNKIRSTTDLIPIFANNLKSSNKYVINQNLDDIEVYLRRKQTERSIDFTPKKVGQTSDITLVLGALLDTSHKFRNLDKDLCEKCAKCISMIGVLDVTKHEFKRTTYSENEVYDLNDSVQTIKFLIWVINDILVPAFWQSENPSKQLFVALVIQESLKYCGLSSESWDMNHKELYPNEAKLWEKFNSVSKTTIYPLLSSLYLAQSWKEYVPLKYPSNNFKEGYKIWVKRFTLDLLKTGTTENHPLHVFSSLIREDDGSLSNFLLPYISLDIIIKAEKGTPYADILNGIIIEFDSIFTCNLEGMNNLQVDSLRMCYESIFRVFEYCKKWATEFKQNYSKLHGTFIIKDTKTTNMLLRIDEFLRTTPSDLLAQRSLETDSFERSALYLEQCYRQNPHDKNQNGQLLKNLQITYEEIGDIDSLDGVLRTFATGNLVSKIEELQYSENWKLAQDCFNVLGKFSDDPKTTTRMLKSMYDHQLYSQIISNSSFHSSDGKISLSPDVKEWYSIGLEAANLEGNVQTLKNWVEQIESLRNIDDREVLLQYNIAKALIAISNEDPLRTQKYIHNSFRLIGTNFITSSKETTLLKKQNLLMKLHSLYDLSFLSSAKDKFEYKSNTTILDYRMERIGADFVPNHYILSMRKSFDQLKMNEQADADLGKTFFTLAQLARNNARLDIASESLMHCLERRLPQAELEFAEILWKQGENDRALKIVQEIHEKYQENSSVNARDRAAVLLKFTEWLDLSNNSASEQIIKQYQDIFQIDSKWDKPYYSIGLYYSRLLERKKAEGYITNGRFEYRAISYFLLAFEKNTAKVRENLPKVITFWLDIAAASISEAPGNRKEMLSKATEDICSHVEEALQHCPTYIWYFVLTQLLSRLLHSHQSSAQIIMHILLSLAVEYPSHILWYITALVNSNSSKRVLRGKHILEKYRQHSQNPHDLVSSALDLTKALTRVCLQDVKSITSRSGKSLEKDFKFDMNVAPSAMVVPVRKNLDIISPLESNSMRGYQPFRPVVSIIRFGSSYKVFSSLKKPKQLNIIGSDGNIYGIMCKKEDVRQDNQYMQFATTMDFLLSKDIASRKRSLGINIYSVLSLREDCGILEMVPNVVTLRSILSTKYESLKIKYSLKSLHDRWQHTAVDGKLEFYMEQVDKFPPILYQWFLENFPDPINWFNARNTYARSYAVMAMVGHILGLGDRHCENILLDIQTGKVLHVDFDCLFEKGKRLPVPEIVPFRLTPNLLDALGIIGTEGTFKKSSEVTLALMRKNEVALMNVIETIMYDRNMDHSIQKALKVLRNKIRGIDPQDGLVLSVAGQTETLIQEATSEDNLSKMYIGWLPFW

B1: Ddc2 (protein, UniProt Q04377 1-747)
chain: MRRETVGEFSSDDDDDILLELGTRPPRFTQIPPSSAALQTQIPTTLEVTTTTLNNKQSKNDNQLVNQLNKAQGEASMLRDKINFLNIEREKEKNIQAVKVNELQVKHLQELAKLKQELQKLEDEKKFLQMEARGKSKREVITNVKPPSTTLSTNTNTITPDSSSVAIEAKPQSPQSKKRKISDNLLKKNMVPLNPNRIIPDETSLFLESILLHQIIGADLSTIEILNRLKLDYITEFKFKNFVIAKGAPIGKSIVSLLLRCKKTLTLDRFIDTLLEDIAVLIKEISVHPNESKLAVPFLVALMYQIVQFRPSATHNLALKDCFLFICDLIRIYHHVLKVPIHESNMNLHVEPQIFQYELIDYLIISYSFDLLEGILRVLQSHPKQTYMEFFDENILKSFEFVYKLALTISYKPMVNVIFSAVEVVNIITSIILNMDNSSDLKSLISGSWWRDCITRLYALLEKEIKSGDVYNENVDTTTLHMSKYHDFFGLIRNIGDNELGGLISKLIYTDRLQSVPRVISKEDIGMDSDKFTAPIIGYKMEKWLLKLKDEVLNIFENLLMIYGDDATIVNGEMLIHSSKFLSREQALMIERYVGQDSPNLDLRCHLIEHTLTIIYRLWKDHFKQLREEQIKQVESQLIMSLWRFLVCQTETVTANEREMRDHRHLVDSLHDLTIKDQASYYEDAFEDLPEYIEEELKMQLNKRTGRIMQVKYDEKFQEMARTILESKSFDLTTLEEADSLYISMGL
**Q.** What does the source list for B1?
**A.** binding [1]: binds; binding [2]: binds
